The list shows a part of the results. These are further read-outs of the screen, such as a control signal, another cell line or another target. No call is given for them. The list favours compounds with an active or inconclusive main result. Potencies come from curve fits of mixed quality, noted in brackets.
Test: qHTS Assay to Find Inhibitors of Chronic Active B-Cell Receptor Signaling
Details: ABC-DLBCL IkBa-CBG/CBR reporter, luminescence ratio (green luciferase fused to IkBa over red control in TMD8 lymphoma cells), 4 h
Procedure, shortened: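 Cell line TMD8 (human ABC DLBCL), stably expressing tet-inducible CBG68-IkBa fusion and CBR; IMDM/0.5% FBS; cpd up to 46 uM; dox induction, 4 h, 37C/5% CO2; dual luminescence; green/red ratio; MG132 control.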

[1] = measured here: CBR red luminescence, cell number
[2] = measured here: IkBa-CBG green luminescence

SMILES	AC50 [1]	AC50 [2]
COc1ccccc1NC(=O)COC(=O)/C=C/c1cccs1	0.461 µM [falling, partial curve, poor fit]	–
CCOc1ccccc1OCCn1nnc2ccccc21	16.4 µM [rising, partial curve, poor fit]	–
COc1cccc(Oc2cc(Cl)nc(N)n2)c1	10 µM [rising, partial curve, poor fit]	–
C/C(=N\NC(=O)c1ccccc1)c1c(C)[nH]n(-c2ccccc2)c1=O	6.31 µM [falling, partial curve]	–
O=C(Nc1ncccc1O)c1ccc2c(c1)OCO2	0.146 µM [falling, full curve, poor fit]	–
CCNCc1cc(Cl)c(OCc2ccccc2)c(OCC)c1	10 µM [falling, partial curve]	–
CCC(C)NC(=O)C(CCSC)NC(=O)c1ccccc1 (configuration not stated)	6.51 µM [falling, single point]	–
COc1ccc(C2Nc3ccccc3C(=O)N2c2ccccc2)cc1CSc1ccccn1 (configuration not stated)	29.1 µM [falling, single point]	–
Cc1ccccc1/C=N\NC(=O)c1ccccc1-n1cccc1	35.5 µM [falling, single point]	–
COc1ccc2nc(C)cc(SCC(=O)N3CCCCC3)c2c1	25.1 µM [falling, single point]	–
COc1ccc(Br)cc1C(=O)Nc1cccc(C)c1C	29.1 µM [rising, single point]	–
COc1c(OC(C)=O)c(=O)n2c3ccccc3c3ccnc1c32	0.731 µM [falling, full curve, poor fit]	–
CC(=O)Nc1cccc(NC(=O)CSc2nc(C3CC3)nc3ccccc23)c1	14.1 µM [falling, partial curve]	–
O=C1CC(c2ccc3c(c2)OCCO3)Oc2ccc([N+](=O)[O-])cc21 (configuration not stated)	3.98 µM [falling, full curve]	–
Cc1cccc(OCc2n(CC(=O)OC3CC(C)CCC3C(C)C)c3ccccc3[n+]2C)c1 (configuration not stated)	35.5 µM [falling, single point]	–
N#Cc1c(N2C(=O)Nc3ccccc3N2O)sc2c1CCCC2	12.6 µM [falling, partial curve, poor fit]	–
COc1cccc(N2C(=O)CC(N3CCc4ccccc43)C2=O)c1 (configuration not stated)	10.3 µM [falling, partial curve]	–
O=C(N/N=C/c1c[nH]c2ccccc12)c1cc(-c2ccccc2)n[nH]1	18.4 µM [falling, partial curve]	–
O=C(Nc1ccc2c(c1)OCO2)C(c1ccccc1)N1CCC2(CC1)OCCO2 (configuration not stated)	4.11 µM [rising, full curve]	–
O=C(NCC1CCCO1)c1ccc(CS(=O)(=O)c2ccc(Br)cc2)o1 (configuration not stated)	3.66 µM [rising, full curve, poor fit]	–
O=C1OCCC1Sc1nnc(-c2ccc(Cl)cc2Cl)o1 (configuration not stated)	22.4 µM [falling, single point]	–
O=C(Nc1ccc2[nH]ncc2c1)c1ccccc1Cl	4.47 µM [falling, partial curve]	–

SMILES	AC50 [1]	AC50 [2]
CCCS(=O)(=O)C/C(N)=N/OC(=O)c1ccc(Cl)cc1	20 µM [rising, partial curve, poor fit]	–
O=C(O)/C=C/C(=O)NNC(=O)c1cccc(Br)c1	29.1 µM [falling, single point]	–
C[C@H](Nc1ncnc2sc3c(c12)CCC3)C(=O)O	3.55 µM [falling, single point]	–
Cc1c(/C=N\NC(=O)c2ccc(F)cc2)cnn1C	6.51 µM [falling, partial curve]	–
O=C1Nc2ccccc2C(O)(C(=O)NCc2ccco2)N1c1ccc(Cl)c(Cl)c1 (configuration not stated)	1.12 µM [falling, partial curve, poor fit]	–
Clc1ccc(-c2cc(COc3ccccc3)on2)cc1	0.355 µM [rising, full curve, poor fit]	–
CC1CCN(C2=C(NS(=O)(=O)c3ccc(Cl)cc3)C(=O)c3ccccc3C2=O)CC1	13 µM [rising, partial curve, poor fit]	–
CCOC(=O)C1CCN(c2ncnc3c2cnn3-c2ccccc2)CC1	7.31 µM [falling, partial curve, poor fit]	–
Cc1cccn2c(=O)c3cc(C(=O)NC4CCCCC4)c(=N)n(CCN4CCOCC4)c3nc12	0.1 µM [rising, full curve, poor fit]	–
O=C(Nc1nc(-c2cccc3ccccc23)cs1)c1cnccn1	1.84 µM [rising, full curve, poor fit]	–
C=CCSc1nnc(-c2ccc(Cl)cc2Cl)o1	0.708 µM [rising, full curve, poor fit]	–
COc1cccc2[nH]c3c(=O)n(CCN(C)C)cnc3c12	10 µM [falling, partial curve, poor fit]	–
COc1ccccc1NC1SC(=O)N(c2ccccc2)C1=O (configuration not stated)	0.224 µM [falling, full curve, poor fit]	–
CCOC(=O)c1c(C)[nH]c(C(=O)COC(=O)c2ccc([N+](=O)[O-])o2)c1C	20.6 µM [rising, partial curve, poor fit]	–
Cc1ccsc1/C=N\NC(=O)c1ccc2c(c1)OCO2	4.47 µM [falling, partial curve]	–
COc1ccc(C(C)(C)C)cc1NC(=O)c1ccoc1C	3.66 µM [rising, partial curve, poor fit]	–
CCc1cc2c(=O)c(-c3nc4ccccc4n3C)c(C)oc2c(CN(CC)CC)c1O	20 µM [falling, single point]	–
N#Cc1ccccc1NC(=S)NC(=O)c1cccs1	15.8 µM [falling, single point]	–
Nc1c(C(=O)O)cnc2c(-c3ccc(Cl)cc3)cnn12	7.08 µM [rising, partial curve]	–
COc1ccccc1-c1noc(-c2ccccc2)n1	18.4 µM [falling, single point]	–
COc1cc(C2C(=O)N(C3CCCCCC3)CC(=O)N2CCC2=CCCCC2)ccc1OC(C)C (configuration not stated)	15.8 µM [rising, partial curve]	–
COCCCNc1nc2nonc2nc1N(C)CC1CCCN1C (configuration not stated)	8.91 µM [rising, partial curve, poor fit]	–

Sorted by number of heavy atoms (descending): part of the list above
SMILES	AC50 [1]	AC50 [2]
CC1CCN(C2=C(NS(=O)(=O)c3ccc(Cl)cc3)C(=O)c3ccccc3C2=O)CC1	13 µM [rising, partial curve, poor fit]	–
COc1ccc(C(C)(C)C)cc1NC(=O)c1ccoc1C	3.66 µM [rising, partial curve, poor fit]	–
Nc1c(C(=O)O)cnc2c(-c3ccc(Cl)cc3)cnn12	7.08 µM [rising, partial curve]	–
N#Cc1ccccc1NC(=S)NC(=O)c1cccs1	15.8 µM [falling, single point]	–
C=CCSc1nnc(-c2ccc(Cl)cc2Cl)o1	0.708 µM [rising, full curve, poor fit]	–

The list continues.

SMILES	AC50 [1]	AC50 [2]
CNCCCC1c2ccccc2C=Cc2ccccc21	2.24 µM [falling, partial curve, poor fit]	–
C=CCN(C(=O)c1cc(C)cc(C)c1)C1(C(=O)Nc2ccccc2)CCN(C(C)C)CC1	35.5 µM [falling, partial curve, poor fit]	–
CCc1cccc(NC(=O)c2cnn(-c3ccccc3)c2C)c1	25.1 µM [falling, single point]	–
C=C(C)c1cccc(C(C)(C)NC(=O)Nc2ncccn2)c1	1.3 µM [falling, full curve, poor fit]	–
CCO[C@@H]1OC(C(=O)N2CCOCC2)=C[C@H](c2cn(C(C)=O)c3ccccc23)[C@H]1CCCO	20 µM [rising, single point]	–
COc1ccccc1C(=O)N1CCN(CCNC(=O)C(=O)Nc2ccc(Br)c(C)c2)CC1	17.8 µM [falling, partial curve, poor fit]	–
CCCN(CC(=O)Nc1cc(Cl)cc(Cl)c1)CC(=O)Nc1ccc(F)c(F)c1F	23.1 µM [falling, single point]	–
Cn1cccc1/C=N/NC(=O)c1ccco1	11.2 µM [falling, single point]	–
COc1ccc(C2c3ccc(O)cc3Oc3ncn(CCN4CCOCC4)c(=N)c32)cc1 (configuration not stated)	–	8.91 µM [falling, partial curve, poor fit]
CCCCCC(=O)NC(=S)Nc1ccc(N2CCOCC2)cc1	16.4 µM [rising, partial curve, poor fit]	–
CC(=O)N1CCN(C(=S)c2ccc([N+](=O)[O-])cc2)CC1	6.51 µM [rising, partial curve, poor fit]	–
CCOC(=O)C1CCN(C(=O)c2cc(COc3ccc(OC)c4ccccc34)on2)CC1	2.51 µM [falling, full curve, poor fit]	–
COC(=O)C(CC(C)C)N(Cc1cc(OC)cc(OC)c1)S(=O)(=O)c1ccccc1Br (configuration not stated)	18.4 µM [falling, single point]	–
CN1CCN(C(=S)NC(=O)c2ccc(Br)cc2)CC1	20 µM [rising, partial curve]	22.4 µM [falling, single point]
COC(=O)c1ccc(COc2ccc(/C=C/C(=O)c3ccc(OC)c(CSCC(=O)O)c3)cc2OC)cc1	35.5 µM [falling, single point]	–
CC1=C(C(=O)OCc2ccccc2)C(c2ccccc2Br)NC(=O)N1 (configuration not stated)	15.8 µM [falling, single point]	–
C/C=C/C(=O)OCC(=O)Nc1ccc(OC)c(OC)c1	3.55 µM [falling, partial curve, poor fit]	–
COc1cccc(/C=N/NC(=O)c2cccc3ccccc23)c1	22.4 µM [falling, single point]	–
CCCCCCC[N+](CC)(CC)CCCCc1ccc(Cl)cc1	20.6 µM [falling, single point]	–
Cc1cccc(C)c1NC(=O)NC1CC2CCC(C1)N2Cc1cccs1 (configuration not stated)	1.64 µM [falling, full curve, poor fit]	–
CCC(C)C1C(C#N)=C(N)Oc2n[nH]c(C)c21 (configuration not stated)	5.8 µM [falling, partial curve]	–
Cc1ccc(C)c(CN2C(=O)CSc3ccc(C(=O)NCC(C)CN4CCC(C)CC4)cc32)c1 (configuration not stated)	35.5 µM [rising, single point]	–

From PubChem BioAssay AID493014 (National Center for Advancing Translational Sciences (NCATS), 2011)
